For this assay, the target named is T1, wild-type α-COP (α-COP-FLAG), transfected in HEK293T (mouse) (UniProt Q8CIE6).
T1 sequence: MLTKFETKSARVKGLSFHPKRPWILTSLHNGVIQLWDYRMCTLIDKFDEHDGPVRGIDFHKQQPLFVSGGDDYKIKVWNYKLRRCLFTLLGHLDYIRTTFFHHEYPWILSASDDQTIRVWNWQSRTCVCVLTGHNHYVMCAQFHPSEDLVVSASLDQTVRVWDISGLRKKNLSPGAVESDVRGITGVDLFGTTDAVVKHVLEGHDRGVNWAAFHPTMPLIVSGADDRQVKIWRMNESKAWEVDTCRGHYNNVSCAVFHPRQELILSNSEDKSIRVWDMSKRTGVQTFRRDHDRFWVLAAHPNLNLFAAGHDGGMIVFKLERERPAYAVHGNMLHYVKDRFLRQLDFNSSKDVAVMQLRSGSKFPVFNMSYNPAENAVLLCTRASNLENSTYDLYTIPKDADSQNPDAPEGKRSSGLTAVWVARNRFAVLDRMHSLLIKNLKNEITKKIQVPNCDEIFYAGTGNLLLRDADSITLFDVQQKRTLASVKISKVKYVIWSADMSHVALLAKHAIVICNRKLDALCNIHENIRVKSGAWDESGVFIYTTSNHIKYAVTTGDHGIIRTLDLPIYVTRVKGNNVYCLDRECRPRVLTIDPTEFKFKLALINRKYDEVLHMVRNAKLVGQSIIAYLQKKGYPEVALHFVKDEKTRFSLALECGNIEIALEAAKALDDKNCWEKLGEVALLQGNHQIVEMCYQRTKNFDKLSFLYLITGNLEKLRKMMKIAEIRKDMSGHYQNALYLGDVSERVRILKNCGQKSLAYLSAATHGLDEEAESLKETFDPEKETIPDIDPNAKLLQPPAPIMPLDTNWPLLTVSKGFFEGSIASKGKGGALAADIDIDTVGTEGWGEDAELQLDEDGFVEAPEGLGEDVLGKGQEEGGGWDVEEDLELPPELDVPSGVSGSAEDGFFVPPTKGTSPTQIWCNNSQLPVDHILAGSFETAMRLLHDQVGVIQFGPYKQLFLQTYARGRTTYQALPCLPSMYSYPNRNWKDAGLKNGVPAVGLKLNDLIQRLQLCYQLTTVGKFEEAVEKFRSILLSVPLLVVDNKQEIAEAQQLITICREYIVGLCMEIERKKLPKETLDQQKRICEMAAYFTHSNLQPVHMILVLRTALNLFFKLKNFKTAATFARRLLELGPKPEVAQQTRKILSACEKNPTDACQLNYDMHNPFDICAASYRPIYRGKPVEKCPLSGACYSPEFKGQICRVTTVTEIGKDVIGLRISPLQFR
In words: co-IP.

Results are given in words; binding and its absence hold for the method and conditions named. Binding seen in cells or lysates may run through a third protein. Some binding calls cover weakened binding; strength is not graded here. Where a sequence is shown, tags or fusion partners need not be part of it.

B1: mutant Surf4 (K265A/K266A/K267A), transfected in HEK293T (protein, UniProt Q64310 1-269)
chain: MGQNDLMGTAEDFADQFLRVTKQYLPHVARLCLISTFLEDGIRMWFQWSEQRDYIDTTWSCGYLLASSFVFLNLLGQLTGCVLVLSRNFVQYACFGLFGIIALQTIAYSILWDLKFLMRNLALGGGLLLLLAESRSEGKSMFAGVPTMRESSPKQYMQLGGRVLLVLMFMTLLHFDASFFSIIQNIVGTALMILVAIGFKTKLAALTLVVWLFAINVYFNAFWTIPVYKPMHDFLKYDFFQTMSVIGGLLLVVALGPGGVSMDEAAAEW
On to B1, for which the binding result was “binds”.

These data come from doi:10.1101/2020.05.20.107664.
